The supplement of paper PMC10849652
This is one part of the list. Residues, ends and D or L forms follow the SMILES beside them. *: point of attachment. Cbz = O=C(OCc1ccccc1)*

By UniProt entry, the sequences of proteins in these tests, tags left out. Where a name states a change or a piece, a line headed by the entry shows the natural chain unless it says otherwise.
UniProt O60825: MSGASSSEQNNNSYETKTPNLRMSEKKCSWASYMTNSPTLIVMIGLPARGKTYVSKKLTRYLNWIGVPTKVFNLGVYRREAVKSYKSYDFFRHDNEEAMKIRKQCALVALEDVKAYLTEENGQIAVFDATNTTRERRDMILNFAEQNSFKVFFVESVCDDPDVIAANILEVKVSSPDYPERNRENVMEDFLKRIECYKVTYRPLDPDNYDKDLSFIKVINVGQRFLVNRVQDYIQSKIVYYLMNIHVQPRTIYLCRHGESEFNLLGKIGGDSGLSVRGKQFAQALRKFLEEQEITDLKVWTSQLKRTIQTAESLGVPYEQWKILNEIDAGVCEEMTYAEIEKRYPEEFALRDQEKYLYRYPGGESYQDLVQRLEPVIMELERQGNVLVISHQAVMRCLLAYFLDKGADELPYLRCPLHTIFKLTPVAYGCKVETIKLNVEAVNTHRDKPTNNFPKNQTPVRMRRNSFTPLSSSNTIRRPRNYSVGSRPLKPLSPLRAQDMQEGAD
UniProt Q8N0Y7: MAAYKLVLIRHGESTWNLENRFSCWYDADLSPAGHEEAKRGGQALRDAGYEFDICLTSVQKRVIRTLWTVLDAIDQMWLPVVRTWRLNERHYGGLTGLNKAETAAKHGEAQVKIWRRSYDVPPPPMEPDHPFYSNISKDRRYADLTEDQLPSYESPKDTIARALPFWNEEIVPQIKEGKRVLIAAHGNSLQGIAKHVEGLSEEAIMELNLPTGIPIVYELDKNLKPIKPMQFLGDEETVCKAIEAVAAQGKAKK
UniProt Q6PCE3: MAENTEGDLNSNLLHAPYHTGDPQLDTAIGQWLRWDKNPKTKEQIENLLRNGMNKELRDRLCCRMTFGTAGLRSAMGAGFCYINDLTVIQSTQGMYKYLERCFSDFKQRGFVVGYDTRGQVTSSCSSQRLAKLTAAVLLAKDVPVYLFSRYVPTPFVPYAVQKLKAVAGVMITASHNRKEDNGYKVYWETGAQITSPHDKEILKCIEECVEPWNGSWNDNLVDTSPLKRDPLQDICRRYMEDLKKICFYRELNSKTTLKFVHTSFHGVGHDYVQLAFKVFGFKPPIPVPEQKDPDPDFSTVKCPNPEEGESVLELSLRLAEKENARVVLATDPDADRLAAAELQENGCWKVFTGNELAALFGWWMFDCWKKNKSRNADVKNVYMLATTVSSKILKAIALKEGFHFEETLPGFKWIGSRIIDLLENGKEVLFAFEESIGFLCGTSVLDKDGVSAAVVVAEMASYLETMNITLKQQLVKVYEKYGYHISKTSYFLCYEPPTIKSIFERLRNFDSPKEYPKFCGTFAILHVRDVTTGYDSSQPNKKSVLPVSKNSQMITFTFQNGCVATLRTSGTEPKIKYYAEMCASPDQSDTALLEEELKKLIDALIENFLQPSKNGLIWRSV
UniProt Q01813: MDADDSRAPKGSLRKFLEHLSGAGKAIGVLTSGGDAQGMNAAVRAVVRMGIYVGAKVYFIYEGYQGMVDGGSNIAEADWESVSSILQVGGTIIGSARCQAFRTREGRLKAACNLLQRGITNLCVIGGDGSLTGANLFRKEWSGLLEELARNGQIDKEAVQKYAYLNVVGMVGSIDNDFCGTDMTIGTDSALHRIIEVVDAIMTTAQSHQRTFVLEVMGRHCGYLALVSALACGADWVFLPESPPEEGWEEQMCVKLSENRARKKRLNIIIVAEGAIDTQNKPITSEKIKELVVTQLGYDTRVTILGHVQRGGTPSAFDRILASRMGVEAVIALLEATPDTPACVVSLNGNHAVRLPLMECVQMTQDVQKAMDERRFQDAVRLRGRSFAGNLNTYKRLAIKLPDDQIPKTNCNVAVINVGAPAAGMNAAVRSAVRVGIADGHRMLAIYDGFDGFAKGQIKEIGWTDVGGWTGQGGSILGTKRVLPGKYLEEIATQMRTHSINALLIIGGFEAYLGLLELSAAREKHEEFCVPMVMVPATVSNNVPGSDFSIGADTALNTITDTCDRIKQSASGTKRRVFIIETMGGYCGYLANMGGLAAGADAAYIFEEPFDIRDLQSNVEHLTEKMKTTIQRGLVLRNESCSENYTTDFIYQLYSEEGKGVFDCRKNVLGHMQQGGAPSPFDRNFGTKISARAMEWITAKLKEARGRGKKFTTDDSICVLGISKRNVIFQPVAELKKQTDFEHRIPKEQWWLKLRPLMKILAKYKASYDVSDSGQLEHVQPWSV
UniProt Q96G03: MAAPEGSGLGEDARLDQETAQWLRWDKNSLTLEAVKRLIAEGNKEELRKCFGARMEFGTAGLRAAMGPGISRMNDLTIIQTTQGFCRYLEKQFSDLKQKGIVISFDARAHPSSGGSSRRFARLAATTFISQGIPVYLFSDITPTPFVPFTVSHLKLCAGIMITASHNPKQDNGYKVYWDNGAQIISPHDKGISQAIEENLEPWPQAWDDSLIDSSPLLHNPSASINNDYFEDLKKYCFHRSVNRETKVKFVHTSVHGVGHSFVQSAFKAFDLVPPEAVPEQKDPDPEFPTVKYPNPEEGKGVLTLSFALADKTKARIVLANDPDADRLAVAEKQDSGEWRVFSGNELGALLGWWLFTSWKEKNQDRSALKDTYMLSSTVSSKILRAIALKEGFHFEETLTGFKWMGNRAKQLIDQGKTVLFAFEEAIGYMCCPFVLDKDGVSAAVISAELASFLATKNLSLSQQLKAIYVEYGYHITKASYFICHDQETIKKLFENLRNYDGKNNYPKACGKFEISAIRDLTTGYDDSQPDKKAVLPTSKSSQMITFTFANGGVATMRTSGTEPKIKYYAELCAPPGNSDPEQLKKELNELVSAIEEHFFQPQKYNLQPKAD
UniProt P52209: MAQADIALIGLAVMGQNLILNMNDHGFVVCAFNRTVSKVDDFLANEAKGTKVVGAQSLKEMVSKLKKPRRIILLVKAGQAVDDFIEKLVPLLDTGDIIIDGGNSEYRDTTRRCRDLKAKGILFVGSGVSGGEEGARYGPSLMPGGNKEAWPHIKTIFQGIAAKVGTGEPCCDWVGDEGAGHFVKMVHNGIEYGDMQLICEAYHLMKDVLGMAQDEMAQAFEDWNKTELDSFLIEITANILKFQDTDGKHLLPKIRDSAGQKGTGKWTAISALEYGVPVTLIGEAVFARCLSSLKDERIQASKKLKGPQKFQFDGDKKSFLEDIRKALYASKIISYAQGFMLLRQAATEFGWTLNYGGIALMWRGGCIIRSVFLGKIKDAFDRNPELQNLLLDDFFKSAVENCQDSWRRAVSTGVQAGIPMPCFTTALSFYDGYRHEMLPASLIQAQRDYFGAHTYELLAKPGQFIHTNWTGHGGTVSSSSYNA
UniProt Q9Y237, whole entry, looked up: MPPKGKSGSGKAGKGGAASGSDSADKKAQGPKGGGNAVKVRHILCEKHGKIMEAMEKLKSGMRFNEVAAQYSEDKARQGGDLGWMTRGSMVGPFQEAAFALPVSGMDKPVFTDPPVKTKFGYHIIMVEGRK
UniProt P37287: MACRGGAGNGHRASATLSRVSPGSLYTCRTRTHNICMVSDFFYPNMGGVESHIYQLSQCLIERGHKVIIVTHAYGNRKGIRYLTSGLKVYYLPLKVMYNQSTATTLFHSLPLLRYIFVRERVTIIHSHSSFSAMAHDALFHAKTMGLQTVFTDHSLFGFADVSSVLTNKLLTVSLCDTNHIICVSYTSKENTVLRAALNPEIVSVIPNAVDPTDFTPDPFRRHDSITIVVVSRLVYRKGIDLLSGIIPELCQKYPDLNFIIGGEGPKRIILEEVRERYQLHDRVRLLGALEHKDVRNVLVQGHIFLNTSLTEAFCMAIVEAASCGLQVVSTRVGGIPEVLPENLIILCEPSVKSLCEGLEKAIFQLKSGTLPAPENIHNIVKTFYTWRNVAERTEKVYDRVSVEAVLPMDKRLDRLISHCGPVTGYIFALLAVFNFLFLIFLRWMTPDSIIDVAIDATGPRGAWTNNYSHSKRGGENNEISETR
UniProt P12273: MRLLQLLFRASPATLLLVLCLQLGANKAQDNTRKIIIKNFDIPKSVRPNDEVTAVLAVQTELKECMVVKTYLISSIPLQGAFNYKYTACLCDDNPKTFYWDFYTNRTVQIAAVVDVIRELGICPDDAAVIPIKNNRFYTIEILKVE
UniProt P42356, whole entry, looked up: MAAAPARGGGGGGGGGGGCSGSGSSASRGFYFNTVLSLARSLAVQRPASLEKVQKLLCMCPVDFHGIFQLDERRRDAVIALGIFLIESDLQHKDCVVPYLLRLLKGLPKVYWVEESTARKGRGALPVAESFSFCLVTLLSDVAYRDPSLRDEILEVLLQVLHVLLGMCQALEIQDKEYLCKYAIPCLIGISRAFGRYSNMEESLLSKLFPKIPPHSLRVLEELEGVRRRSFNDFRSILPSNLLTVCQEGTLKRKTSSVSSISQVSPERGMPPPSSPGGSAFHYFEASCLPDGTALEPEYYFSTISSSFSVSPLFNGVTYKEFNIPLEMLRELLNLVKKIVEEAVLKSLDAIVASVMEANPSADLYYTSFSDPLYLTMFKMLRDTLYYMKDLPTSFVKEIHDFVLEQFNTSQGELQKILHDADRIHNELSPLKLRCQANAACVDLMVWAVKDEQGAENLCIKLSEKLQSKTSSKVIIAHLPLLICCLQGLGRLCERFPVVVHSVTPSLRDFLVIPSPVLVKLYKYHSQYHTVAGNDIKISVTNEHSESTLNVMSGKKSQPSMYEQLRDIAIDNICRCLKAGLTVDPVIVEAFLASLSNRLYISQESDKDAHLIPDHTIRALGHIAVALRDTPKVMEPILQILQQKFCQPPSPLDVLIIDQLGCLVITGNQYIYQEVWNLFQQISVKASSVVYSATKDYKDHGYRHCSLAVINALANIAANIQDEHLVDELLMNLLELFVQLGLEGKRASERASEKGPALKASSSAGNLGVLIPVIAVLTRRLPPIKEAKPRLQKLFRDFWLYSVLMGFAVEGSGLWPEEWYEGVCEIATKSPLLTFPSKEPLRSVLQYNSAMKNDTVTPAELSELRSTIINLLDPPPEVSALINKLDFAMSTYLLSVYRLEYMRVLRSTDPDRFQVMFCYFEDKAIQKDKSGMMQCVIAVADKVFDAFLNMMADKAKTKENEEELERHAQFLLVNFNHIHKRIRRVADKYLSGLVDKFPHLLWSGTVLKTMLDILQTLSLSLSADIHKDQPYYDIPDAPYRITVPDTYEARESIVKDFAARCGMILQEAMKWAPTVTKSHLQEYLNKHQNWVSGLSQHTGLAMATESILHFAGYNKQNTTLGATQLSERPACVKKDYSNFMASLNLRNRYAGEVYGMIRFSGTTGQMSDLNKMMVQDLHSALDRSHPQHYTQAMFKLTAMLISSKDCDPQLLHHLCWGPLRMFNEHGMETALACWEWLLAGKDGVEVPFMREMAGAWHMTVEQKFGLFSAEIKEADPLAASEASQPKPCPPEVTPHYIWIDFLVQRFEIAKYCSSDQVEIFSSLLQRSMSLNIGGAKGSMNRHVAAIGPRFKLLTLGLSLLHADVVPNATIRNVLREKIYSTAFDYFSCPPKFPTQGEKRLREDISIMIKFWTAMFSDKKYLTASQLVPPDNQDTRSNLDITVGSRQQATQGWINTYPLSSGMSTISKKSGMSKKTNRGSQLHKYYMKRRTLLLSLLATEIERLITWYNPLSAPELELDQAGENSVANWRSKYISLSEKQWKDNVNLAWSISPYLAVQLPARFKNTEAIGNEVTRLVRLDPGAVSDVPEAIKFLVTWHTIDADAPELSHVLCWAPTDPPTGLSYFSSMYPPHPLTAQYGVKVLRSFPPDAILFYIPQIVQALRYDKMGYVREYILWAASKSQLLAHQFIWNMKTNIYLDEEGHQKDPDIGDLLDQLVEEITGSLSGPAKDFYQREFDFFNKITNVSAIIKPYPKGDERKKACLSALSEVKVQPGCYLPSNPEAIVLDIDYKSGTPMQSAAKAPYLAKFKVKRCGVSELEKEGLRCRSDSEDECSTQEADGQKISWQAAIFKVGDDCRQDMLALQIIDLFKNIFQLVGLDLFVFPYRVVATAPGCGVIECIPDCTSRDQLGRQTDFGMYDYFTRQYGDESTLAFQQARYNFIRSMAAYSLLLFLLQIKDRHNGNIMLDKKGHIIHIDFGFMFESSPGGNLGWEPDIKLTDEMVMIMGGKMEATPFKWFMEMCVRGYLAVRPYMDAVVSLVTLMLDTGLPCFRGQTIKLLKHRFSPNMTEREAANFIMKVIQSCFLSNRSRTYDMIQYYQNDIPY

How the values were obtained:
Assay in all cases: log2 fold change, soluble protein after heating vs DMSO (PISA); higher = thermal stabilisation; K562 cells, 10 uM, 30 min; active = over 0.2 and 3.5 SD of the protein, either way, in both replicates (recomputed)
IRAK-1-4 Inhibitor I = compound: C1COCCN1CCN2C3=CC=CC=C3N=C2NC(=O)C4=CC(=CC=C4)[N+](=O)[O-] [IRAK-1-4 Inhibitor I]
Procedure, shortened: (§1)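 Aliquots of K562 cells (2×10^6 cells/mL) treated with 10 μM compound for 30 min were heated for 3 min over 48°C-58°C. After pooling and extraction in PBS with 0.5% NP-40 at 4°C, soluble protein from a 21,000xg, 90 min spin was quantified by TMTpro 16plex LC-MS/MS with channel sums equalised. Thermal stability is expressed against control samples, from duplicates, as a log2 fold change.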

ibrutinib = compound: C=CC(=O)N1CCC[C@@H](n2nc(-c3ccc(Oc4ccccc4)cc3)c3c(N)ncnc32)C1 [ibrutinib]
Procedure, shortened: as §1

[1] = compound: CC(=O)c1cnc2ccc(-c3cc(Cl)c(O)c(Cl)c3)nc2c1N[C@H]1CC[C@H](CN(C)C)CC1
Procedure, shortened: as §1

ralimetinib = compound: CC(C)(C)Cn1c(N)nc2ccc(-c3[nH]c(C(C)(C)C)nc3-c3ccc(F)cc3)nc21 [ralimetinib]
Procedure, shortened: as §1

[2] = compound: CC(C)(O)CC(=O)NCCn1ccc2ncnc(Nc3ccc(Oc4cccc(C(F)(F)F)c4)c(Cl)c3)c21
Procedure, shortened: as §1

[3] = compound: CC(C)C1=C2N=C(C=C(N2N=C1)NCC3=CC=CC=C3)NCCCCCCN
Procedure, shortened: as §1

[4] = compound: CC(C)C[C@@H](C=O)NC(=O)[C@H](CC(C)C)NC(=O)[C@H](CC(C)C)NC(=O)OCc1ccccc1
Procedure, shortened: as §1

pinometostat = compound: CC(C)N(C[C@H]1O[C@@H](n2cnc3c(N)ncnc32)[C@H](O)[C@@H]1O)[C@H]1C[C@@H](CCc2nc3cc(C(C)(C)C)ccc3[nH]2)C1 [pinometostat]
Procedure, shortened: as §1

[5] = compound: CC1=C(C(CC(=O)N1)C2=CC=C(C=C2)C(F)(F)F)C(=O)NC3=C(C=C4C(=C3)C=NN4)F
Procedure, shortened: as §1

[6] = compound: CC1=C(C2=C(C=C1)C(=O)C3=CC=CC=C3N2CCCN)C
Procedure, shortened: as §1

[7] = compound: CC1=C(C=C(C=C1)NC(=O)C2=CC(=CC=C2)C(C)(C)C#N)NC3=CC4=C(C=C3)N=CN(C4=O)C
Procedure, shortened: as §1

[8] = compound: CC1=C(C=C(C=C1)NC(=O)C2=CC(=CC=C2)N(C)C)NC(=O)C3=CC=C(C=C3)O
Procedure, shortened: as §1

[9] = compound: CC1=CC=C(C=C1)SC2=C3C=C(SC3=CN=C2)C(=O)N
Procedure, shortened: as §1

[10] = compound: CC1=NC(=CC=C1)C2=C(N=C(N2)C(C)(C)C)C3=CC4=NC=CN=C4C=C3
Procedure, shortened: as §1

Nexturastat A = compound: CCCCN(Cc1ccc(C(=O)NO)cc1)C(=O)Nc1ccccc1 [Nexturastat A]
Procedure, shortened: as §1

vemurafenib = compound: CCCS(=O)(=O)Nc1ccc(F)c(C(=O)c2c[nH]c3ncc(-c4ccc(Cl)cc4)cc23)c1F [vemurafenib]
Procedure, shortened: as §1

[11] = compound: CCCS(=O)(=O)Nc1ccc(F)c(C(=O)c2c[nH]c3ncc(Cl)cc23)c1F
Procedure, shortened: as §1

[12] = compound: CCCc1cc(C)[nH]c(=O)c1CNC(=O)c1cc(-c2ccnc(N3CCN(C)CC3)c2)cc2c1cnn2C(C)C
Procedure, shortened: as §1

givinostat = compound: CCN(CC)Cc1ccc2cc(COC(=O)Nc3ccc(C(=O)NO)cc3)ccc2c1 [givinostat]
Procedure, shortened: as §1

barasertib = compound: CCN(CCCOc1ccc2c(Nc3cc(CC(=O)Nc4cccc(F)c4)[nH]n3)ncnc2c1)CCOP(=O)(O)O [barasertib]
Procedure, shortened: as §1

Measured: log2 fold change

PFKFB2 (UniProt O60825)
inactive: IRAK-1-4 Inhibitor I 0.023 | ibrutinib 0.029 | [1] -0.011 | ralimetinib -0.029 | [2] 0.05 | [3] 0.04 | [4] -0.006 | pinometostat -0.043 | [5] -0.016 | [6] 0.025 | [7] -0.034 | [8] -0.002 | [9] 0.009 | [10] -0.023 | Nexturastat A -0.037 | vemurafenib 0.019 | [11] -0.009 | [12] -0.013 | givinostat -0.02 | barasertib 0.044

PHKB isoform 3 (UniProt Q93100)
inactive: IRAK-1-4 Inhibitor I -0.063 | ibrutinib -0.044 | [1] 0.089 | ralimetinib 0.028 | [2] -0.073 | [3] -0.06 | [4] 0.094 | pinometostat 0.123 | [5] 0.031 | [6] -0.018 | [7] -0.109 | [8] -0.023 | [9] 0 | [10] 0.012 | Nexturastat A -0.01 | vemurafenib -0.042 | [11] -0.033 | [12] -0.017 | givinostat 0.024 | barasertib -0.008

PIGS (UniProt Q96S52)
inactive: IRAK-1-4 Inhibitor I -0.028 | ibrutinib -0.026 | [1] 0.013 | ralimetinib 0.024 | [2] 0.033 | [3] -0.013 | [4] -0.02 | pinometostat 0.065 | [5] -0.01 | [6] 0.044 | [7] -0.025 | [8] 0.007 | [9] -0.033 | [10] -0.003 | Nexturastat A 0.037 | vemurafenib 0.026 | [11] 0.001 | [12] 0.002 | givinostat 0.033 | barasertib 0.027

PGAM4 (UniProt Q8N0Y7)
inactive: IRAK-1-4 Inhibitor I 0.071 | ibrutinib 0.018 | [1] 0.024 | ralimetinib -0.043 | [2] 0.038 | [3] 0.062 | [4] 0.03 | pinometostat -0.025 | [5] 0.043 | [6] -0.012 | [7] -0.032 | [8] 0.033 | [9] 0.006 | [10] 0.009 | Nexturastat A -0.048 | vemurafenib -0.001 | [11] -0.001 | [12] -0.027 | givinostat -0.035 | barasertib -0.012

PGM2L1 (UniProt Q6PCE3)
inactive: IRAK-1-4 Inhibitor I 0.069 | ibrutinib 0.041 | [1] 0.004 | ralimetinib -0.024 | [2] 0 | [3] -0.042 | [4] -0.015 | pinometostat -0.022 | [5] 0.057 | [6] 0 | [7] -0.041 | [8] 0.022 | [9] -0.023 | [10] -0.024 | Nexturastat A 0.009 | vemurafenib -0.042 | [11] 0.036 | [12] 0.018 | givinostat -0.025 | barasertib 0.031

PIK3R4 (UniProt Q99570)
inactive: IRAK-1-4 Inhibitor I 0.033 | ibrutinib -0.013 | [1] 0.125 | ralimetinib -0.023 | [2] -0.014 | [3] -0.016 | [4] 0.025 | pinometostat 0.053 | [5] -0.015 | [6] 0.09 | [7] -0.003 | [8] 0.027 | [9] 0.013 | [10] -0.02 | Nexturastat A 0.066 | vemurafenib -0.002 | [11] 0.01 | [12] -0.019 | givinostat 0.008 | barasertib 0.005

PFKP (UniProt Q01813)
inactive: IRAK-1-4 Inhibitor I 0.06 | ibrutinib 0.019 | [1] -0.014 | ralimetinib -0.028 | [2] 0.023 | [3] 0.05 | [4] -0.006 | pinometostat -0.017 | [5] 0.032 | [6] 0.055 | [7] -0.012 | [8] 0.013 | [9] 0.007 | [10] -0.003 | Nexturastat A -0.009 | vemurafenib -0.031 | [11] -0.021 | [12] -0.002 | givinostat 0.004 | barasertib -0.007

PICALM (UniProt H0YEY8)
inactive: IRAK-1-4 Inhibitor I 0.05 | ibrutinib 0.062 | [1] -0.083 | ralimetinib -0.034 | [2] 0.003 | [3] 0.012 | [4] 0.204 | pinometostat 0.002 | [5] -0.011 | [6] 0.013 | [7] -0.003 | [8] 0.079 | [9] 0.132 | [10] -0.019 | Nexturastat A -0.005 | vemurafenib 0.07 | [11] 0.28 | [12] -0.211 | givinostat 0.057 | barasertib -0.066

PGM2 (UniProt Q96G03)
inactive: IRAK-1-4 Inhibitor I 0.011 | ibrutinib 0.005 | [1] 0.007 | ralimetinib -0.057 | [2] -0.026 | [3] 0.048 | [4] -0.04 | pinometostat -0.047 | [5] 0.006 | [6] -0.003 | [7] -0.013 | [8] 0.004 | [9] -0.001 | [10] 0.034 | Nexturastat A -0.108 | vemurafenib 0.02 | [11] -0.006 | [12] -0.018 | givinostat -0.015 | barasertib -0.011

PLCD1 isoform 2 (UniProt P51178)
inactive: IRAK-1-4 Inhibitor I -0.014 | ibrutinib 0.014 | [1] -0.146 | ralimetinib -0.007 | [2] -0.113 | [3] -0.085 | [4] 0.035 | pinometostat 0.042 | [5] 0.014 | [6] 0.018 | [7] 0.048 | [8] -0.008 | [9] 0.015 | [10] -0.021 | Nexturastat A -0.043 | vemurafenib 0.003 | [11] 0.03 | [12] -0.006 | givinostat 0.049 | barasertib 0.053

Looked up one by one from above, two records:
PICALM (UniProt H0YEY8)
inactive: IRAK-1-4 Inhibitor I 0.05 | ibrutinib 0.062 | [1] -0.083 | ralimetinib -0.034 | [2] 0.003 | [3] 0.012 | [4] 0.204 | pinometostat 0.002 | [5] -0.011 | [6] 0.013 | [7] -0.003 | [8] 0.079 | [9] 0.132 | [10] -0.019 | Nexturastat A -0.005 | vemurafenib 0.07 | [11] 0.28 | [12] -0.211 | givinostat 0.057 | barasertib -0.066

PIGS (UniProt Q96S52)
inactive: IRAK-1-4 Inhibitor I -0.028 | ibrutinib -0.026 | [1] 0.013 | ralimetinib 0.024 | [2] 0.033 | [3] -0.013 | [4] -0.02 | pinometostat 0.065 | [5] -0.01 | [6] 0.044 | [7] -0.025 | [8] 0.007 | [9] -0.033 | [10] -0.003 | Nexturastat A 0.037 | vemurafenib 0.026 | [11] 0.001 | [12] 0.002 | givinostat 0.033 | barasertib 0.027

Going on with the list.

PFKM isoform 3 (UniProt P08237)
inactive: IRAK-1-4 Inhibitor I 0.025 | ibrutinib 0.021 | [1] -0.005 | ralimetinib -0.043 | [2] -0.01 | [3] 0.058 | [4] -0.016 | pinometostat -0.017 | [5] 0.023 | [6] 0.01 | [7] -0.02 | [8] -0.005 | [9] 0.008 | [10] 0 | Nexturastat A -0.071 | vemurafenib -0.021 | [11] 0.004 | [12] -0.02 | givinostat -0.023 | barasertib -0.022

PGD (UniProt P52209)
inactive: IRAK-1-4 Inhibitor I 0.074 | ibrutinib 0 | [1] -0.02 | ralimetinib -0.058 | [2] -0.021 | [3] 0.015 | [4] -0.012 | pinometostat -0.002 | [5] 0.004 | [6] 0.025 | [7] -0.005 | [8] 0.018 | [9] 0.037 | [10] 0.044 | Nexturastat A -0.076 | vemurafenib -0.009 | [11] 0.064 | [12] 0.01 | givinostat -0.039 | barasertib 0.016

PIN4 isoform 2 (UniProt Q9Y237)
inactive: IRAK-1-4 Inhibitor I 0.041 | ibrutinib -0.012 | [1] 0.006 | ralimetinib -0.083 | [2] -0.007 | [3] 0.047 | [4] -0.027 | pinometostat -0.01 | [5] 0.016 | [6] 0.014 | [7] -0.022 | [8] 0.012 | [9] 0.001 | [10] 0.032 | Nexturastat A 0.003 | vemurafenib 0.039 | [11] 0.008 | [12] -0.074 | givinostat -0.049 | barasertib -0.002

PIGA (UniProt P37287)
inactive: IRAK-1-4 Inhibitor I 0.031 | ibrutinib -0.009 | [1] 0.007 | ralimetinib -0.058 | [2] -0.105 | [3] 0.049 | [4] -0.023 | pinometostat -0.003 | [5] 0.001 | [6] 0.031 | [7] -0.055 | [8] 0.039 | [9] -0.005 | [10] -0.033 | Nexturastat A -0.07 | vemurafenib -0.055 | [11] 0.034 | [12] -0.038 | givinostat -0.047 | barasertib 0.017

PIP (UniProt P12273)
inactive: IRAK-1-4 Inhibitor I 0.015 | ibrutinib -0.037 | [1] -0.166 | ralimetinib -0.186 | [2] -0.02 | [3] -0.027 | [4] -0.315 | pinometostat -0.143 | [5] -0.457 | [6] 0.725 | [7] -0.152 | [8] 0.032 | [9] 0.406 | [10] -0.137 | Nexturastat A -0.133 | vemurafenib -0.108 | [11] -0.484 | [12] 0.04 | givinostat 0.149 | barasertib 0.374

PI4KA (UniProt P42356)
inactive: IRAK-1-4 Inhibitor I -0.032 | ibrutinib -0.004 | [1] 0.004 | ralimetinib 0.157 | [2] 0 | [3] -0.066 | [4] 0.101 | pinometostat 0.134 | [5] 0.002 | [6] -0.009 | [7] 0.036 | [8] -0.052 | [9] -0.023 | [10] -0.047 | Nexturastat A 0.211 | vemurafenib -0.01 | [11] 0.072 | [12] 0.029 | givinostat 0.057 | barasertib 0.044
